# According to PubChem BioAssay AID1347426 (Functional Genomics Laboratory (NCATS/FGL), 2020):
# Screen size: about 31,000 sequences; about 1,400 (4.5%) were called active.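 How the source made its calls: active means median seed-adjusted z-score above 1 or below -1; inactive means the rest.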 This is one part of the list.
# Experiment: Novel Modifiers of Survival Motor Neuron (SMN) Protein: Gene Identification via Genome-wide siRNA Screen;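 further: luminescence tracks full-length SMN protein made from the SMN2 reporter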
# Details: HEK293T SMN2-luciferase reporter, siRNA knockdown, 72 h; actives lie on both sides
# Outline: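 Steps: spot 1 pmol siRNA, add Lipofectamine RNAiMax in serum-free DMEM, seed HEK293T SMN2–luciferase reporter cells; incubate 72 h at 37 °C; add ONE-Glo; normalize luminescence to control siRNA, log10, MAD. Candidates: |MAD| > 1.0.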
row,Sequence,median seed-adjusted z-score
1,GGUCGUCAAUGCAGAUUAUTT against MEGF10,inactive: 0.622
2,UCAGUUUGCUGAGAACGAATT against TCEB1,active: 1.08
3,GGAUGGAAAAUGAACAGCATT against ASPHD2,inactive: -0.719
4,CAGGUUAUCGUGUGAAGGATT against TNFRSF14,inactive: 0
5,CCAACGAAGCCGUCUUUUUTT against NONO,inactive: 0.555
6,CGUAAUCUGAUGAUCGAUATT against CADM1,inactive: 0.419
7,GGAAGGAAGAGGAACCGGATT against ZNF688,inactive: -0.475
8,CCAUUGCUACCAAGACUUUTT against B4GALNT2,inactive: -0.174
9,GGACAUUUCAUGAGUCAUUTT against 8-Mar,inactive: -0.106
10,GUAUGGUCGUGUGAGGAAATT against KHK,inactive: 0
11,AGGGAUGGAUGCAAACUUUTT against LILRB1,inactive: 0.539
12,GCAUGGUGUUCUUCCUAAUTT against SLC38A3,inactive: -0.177
13,GGCUCAUGAUGGACAUGAUTT against CANX,inactive: 0.471
14,GGCAAAUAGUGAGUCAGAATT against HBP1,inactive: -0.117
15,GGUCCUUCUAUACCGCUUATT against QSOX1,inactive: -0.154
16,GGAGAUGUAAAGUCAAAGATT against COPB1,inactive: -0.839
17,GGCUCAAGACAGUCCUGAATT against TMEM8,inactive: -0.551
18,CCGUAGAUGCAAUAUAUCATT against OSBPL9,inactive: -0.958
19,CCAAUAUUGUUAAGAAUGATT against PSMAL,inactive: 0.525
20,GGACAAUUCGGGAAAUUGUTT against VAX2,inactive: -0.71
21,GGAUGAGACUUUGAGACUATT against PRDX1,inactive: 0.288
22,GUGCUUCUGGGUGAAGUCATT against SLC25A41,inactive: 0.0703
23,GGAUCUAAUGAACGGAACATT against SIRPA,inactive: -0.153
24,CGGAGAAGAUGUUCGCCGATT against SIL1,inactive: 0.0292
25,AGAUCUGCGUUGAAAUGGATT against ARHGAP4,inactive: 0.784
26,CGUUCUGUCUGGUGAUGUUTT against OTOG,inactive: -0.344
27,GGGAAGCUGUUCGACUAUUTT against CYC1,inactive: -0.47

row,Sequence,median seed-adjusted z-score
1,CAAACCUAACUAUACAUAATT against ZNF107,inactive: 0.0761
2,CCAGGCAAAUGUAAGAAUATT against PDLIM5,inactive: 0.439
3,CCAUCUAGAGUAUCACGCATT against CYGB,inactive: -0.34
4,CGUUCAGACAUACCGAAAATT against ELOVL2,inactive: -0.456
5,GCAACAUGGGAAUUAUGAATT against SP1,inactive: 0.544
6,CCCUCAAGCUGUUAACAGATT against ACMSD,inactive: 0
7,CAGUGGAUGUUAUUCCUCATT against RNF128,inactive: -0.377
8,UCUUCGAGCAAGAAACUAATT against CD9,active: -1.02
9,CACCUCUGGCUAACCCAUATT against ASGR2,inactive: 0.0772
10,GGAUCAAGGCUAUGUGGAUTT against CYB5R1,inactive: 0
11,GCCUUAUUUCUAUACUGGATT against TRIM60,inactive: -0.201
12,GCAUGUCAUCGAUGGAGAATT against PA2G4,inactive: -0.803
13,AGACAUGUCAUUCAAGUUUTT against TPO,inactive: 0.894
14,GGCUAUGUGCGGGAGUAUATT against PI4KA,inactive: 0
15,GUAGGAUUGUUUAGUGUAATT against CACNA1D,inactive: -0.0856
16,GUAUAUCUGAUGAAGGAUATT against DDX10,inactive: -0.968
17,GGACAAGAUUUGACUUAAATT against WTIP,inactive: 0.222
18,GCUUCAUUGAUUACCCAAATT against PLAU,inactive: 0.0765
19,CCAGUUCAGUGCAAAGACATT against ZNF441,inactive: 0.578
20,GGACUAUUCUUGAUAAGAATT against PTER,inactive: 0.75
21,GCUCCGCAAUUUCUACAGATT against HECW1,inactive: -0.878
22,CCGUAGCCGUGAAGAUGCUTT against FGFR3,inactive: -0.133
23,GCAUGAAUCUUACUGUCCATT against ZFP2,inactive: 0
24,GGUUAGACUUCUUAUGGAATT against ADCY2,inactive: 0.173
25,CCGGAGAAGUUCAACAGCATT against DGKA,active: -1.36
26,CCUCGGCUCCAGCAAAUCATT against CACNB1,inactive: 0.225
